Results deposited as PubChem BioAssay AID1259254 (NCATS, 2017)
Aim: 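Finding genes that stop cells copying their DNA twice in one cycle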 (primary screen). Cells: human HCT116 colorectal cancer cells. Knock-down reagent: single siRNA against human genes. Duration: 3 days. Detection: 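Imaged Hoechst DNA stain sorts each cell into a cycle phase by DNA amount; per plate, G2 fraction set to 0% for non-targeting and 100% for GMNN siRNA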. Reading the numbers: G2 robust z-score and G2 cells, % of GMNN control: higher = more G2 cells, more excess DNA replication; raw share of cells in G2: higher = larger share of cells with G2 DNA content. Active means: 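An siRNA counts as active if its G2 robust z-score lies at least 5 MADs above the screen median; here such calls match roughly 38% of GMNN control or more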.
Shown is a random part of about 59,000 deposited reagents. Over the whole deposit, about 1,550 (2.6%) got an active call. 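G2 share is only a proxy for re-replication; each gene was hit by three separate siRNAs, and active genes were retested.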 The raw values are shown without normalisation. A number with no mark means an inactive call. Reagents against one gene are numbered here. Reagent sequences are not shown. Not stated in the record: the amount of reagent.

Target gene | reagent | G2 robust z-score | G2 cells, % of GMNN control | raw share of cells in G2 (%)
EXOSC3 | 1 | 1.77 | 15.4 | 13
EXOSC3 | 2 | 3.15 | 25.2 | 13.5
EXOSC3 | 3 | 0.0461 | 3.29 | 5.06
EPHA8 | 1 | -0.616 | -1.37 | 4.95
EPHA8 | 2 | 1.49 | 13.4 | 10
EPHA8 | 3 | -0.81 | -2.73 | 3.06
LINC02906 | 1 | 2.07 | 17.5 | 9.78
LINC02906 | 2 | 0.239 | 4.65 | 5.43
LINC02906 | 3 | 1.42 | 12.9 | 10.2
FADS2 | 1 | -0.202 | 1.55 | 5.79
FADS2 | 2 | -0.544 | -0.859 | 4.4
FADS2 | 3 | -0.835 | -2.9 | 2.21
ACO2 | 1 | 0.714 | 7.99 | 6.97
ACO2 | 2 | -1.13 | -4.96 | 3.31
ACO2 | 3 | 1.74 | 15.2 | 9.9
PAQR7 | 1 | 2.85 | 23 | 14.1
PAQR7 | 2 | 1.01 | 10 | 8.03
PAQR7 | 3 | 0.0117 | 3.05 | 4.2
HDAC11 | 1 | 1.18 | 11.2 | 8.95
HDAC11 | 2 | 0.168 | 4.15 | 7.16
HDAC11 | 3 | 2.18 | 18.3 | 10.8
SEMA5B | 1 | -0.0714 | 2.46 | 7.07
SEMA5B | 2 | 5.08 (active) | 38.7 | 18.5
SEMA5B | 3 | -0.421 | 0.00824 | 3.8
ABCC4 | 1 | -1.15 | -5.13 | 3.47
ABCC4 | 2 | -0.967 | -3.83 | 2.6
ABCC4 | 3 | 4.07 | 31.6 | 18.9
VPS33A | 1 | 2.06 | 17.4 | 12.2
VPS33A | 2 | 0.659 | 7.61 | 8.02
VPS33A | 3 | -0.631 | -1.47 | 2.31
CYP39A1 | 1 | 1.47 | 13.3 | 12
CYP39A1 | 2 | 3.43 | 27.1 | 14.2
CYP39A1 | 3 | 0.115 | 3.77 | 5.25
PHC1 | 1 | 1.07 | 10.5 | 9.06
PHC1 | 2 | -0.64 | -1.53 | 4.68
PHC1 | 3 | 0.841 | 8.89 | 6.82
DVL2 | 1 | -0.459 | -0.262 | 5.18
DVL2 | 2 | -0.479 | -0.402 | 3.94
DVL2 | 3 | 0.24 | 4.66 | 5.35
DEFB123 | 1 | 1.13 | 10.9 | 6.67
DEFB123 | 2 | 0.934 | 9.54 | 7.03
DEFB123 | 3 | -0.383 | 0.271 | 3.22
EPPK1 | 1 | 3.29 | 26.1 | 13.6
EPPK1 | 2 | 0.24 | 4.66 | 6.51
EPPK1 | 3 | 5.58 (active) | 42.2 | 23
ROPN1L | 1 | -0.618 | -1.38 | 3.08
ROPN1L | 2 | -0.109 | 2.2 | 4.84
ROPN1L | 3 | 3.13 | 25 | 10.9
ROPN1L | 4 | -0.76 | -2.38 | 1.68
ROPN1L | 5 | 1.63 | 14.5 | 9.03
ROPN1L | 6 | -0.65 | -1.6 | 2.31

Entries listed so far whose target name begins with E or e:
Target gene | reagent | G2 robust z-score | G2 cells, % of GMNN control | raw share of cells in G2 (%)
EXOSC3 | 1 | 1.77 | 15.4 | 13
EXOSC3 | 2 | 3.15 | 25.2 | 13.5
EXOSC3 | 3 | 0.0461 | 3.29 | 5.06
EPHA8 | 1 | -0.616 | -1.37 | 4.95
EPHA8 | 2 | 1.49 | 13.4 | 10
EPHA8 | 3 | -0.81 | -2.73 | 3.06
EPPK1 | 1 | 3.29 | 26.1 | 13.6
EPPK1 | 2 | 0.24 | 4.66 | 6.51
EPPK1 | 3 | 5.58 (active) | 42.2 | 23

Additional records follow:
Target gene | reagent | G2 robust z-score | G2 cells, % of GMNN control | raw share of cells in G2 (%)
PRRT1B | 1 | 3.86 | 30.1 | 15.2
PRRT1B | 2 | -0.251 | 1.2 | 3.87
PRRT1B | 3 | -0.928 | -3.56 | 1.91
TUBGCP5 | 1 | 0.189 | 4.3 | 5.81
TUBGCP5 | 2 | 0.156 | 4.06 | 4.54
TUBGCP5 | 3 | -0.457 | -0.249 | 1.75
LYPLAL1 | 1 | 2.81 | 22.8 | 16.2
LYPLAL1 | 2 | 0.916 | 9.41 | 9.01
LYPLAL1 | 3 | -0.912 | -3.45 | 3.18
C5orf22 | 1 | -0.59 | -1.18 | 4.07
C5orf22 | 2 | 3.69 | 28.9 | 16.1
C5orf22 | 3 | -0.146 | 1.94 | 3.76
CSHL1 | 1 | 0.508 | 6.54 | 6.35
CSHL1 | 2 | 0.021 | 3.11 | 6.07
CSHL1 | 3 | 1.2 | 11.4 | 9.17
HCG22 | 1 | -0.466 | -0.315 | 3.17
HCG22 | 2 | 1.3 | 12.1 | 8.06
HCG22 | 3 | 0.466 | 6.25 | 5.46
IP6K1 | 1 | 0.236 | 4.63 | 7.03
IP6K1 | 2 | -1.41 | -6.97 | 2.66
IP6K1 | 3 | -1.05 | -4.43 | 2.26
GPR26 | 1 | 4.06 | 31.5 | 17.1
GPR26 | 2 | 1.19 | 11.4 | 8.49
GPR26 | 3 | -0.793 | -2.61 | 2.47
RNF5 | 1 | 3.4 | 26.9 | 14.1
RNF5 | 2 | -0.34 | 0.578 | 5.12
RNF5 | 3 | 1.22 | 11.6 | 7.3
MTRFR | 1 | -0.523 | -0.71 | 3.78
MTRFR | 2 | -0.498 | -0.533 | 2.83
MTRFR | 3 | -0.462 | -0.281 | 2.84
SUV39H2 | 1 | 0.163 | 4.12 | 6.31
SUV39H2 | 2 | -0.998 | -4.06 | 3.74
SUV39H2 | 3 | -0.811 | -2.74 | 3.2
BCAN | 1 | -0.332 | 0.628 | 4.85
BCAN | 2 | 0.259 | 4.79 | 6.76
BCAN | 3 | 0.436 | 6.04 | 4.29
